Earlier results as cited in patent US20220323426A1, “CHOLINERGIC POTENTIATION OF BINOCULAR VISION” (THE ROYAL INSTITUTION FOR THE ADVANCEMENT OF LEARNING / …, priority 2019, published 2022).

Settings: Rogers et al., 1998; cited from earlier work

Question: For `COc1cc2c(cc1OC)C(=O)C(CC1CCN(Cc3ccccc3)CC1)C2` (stereo not shown) [donepezil], which half-life is on record?
Answer: Its half-life is 80 h.
